The entries are a selection whose mix differs from that of the whole data set.
Compound: COC(=O)C#Cc1ccccc1 [methyl 3-phenylpropiolate]
Assay: log2 ratio of iodoacetamide-alkyne labeling of the cysteine site, DMSO over compound (competition); higher = stronger covalent engagement of the cysteine by the compound, active = 1 or more
Details: 500 µM; treatment time 1 h; system: HEK293T cell lysate
Method in brief: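 After 1 h at ambient temperature with vehicle or electrophile (500 µM), HEK293T lysate (2 mg/mL) was labelled for 1 h with iodoacetamide alkyne and clicked to sCIP-TMT reagents. Pooled samples were trypsin-digested overnight at 37 °C, streptavidin-enriched, acid-eluted and analysed by Orbitrap Eclipse LC-MS/MS with FAIMS, then quantified in FragPipe over three replicates with duplicate channels. A cysteine's log2 competition ratio is its mean control-channel over mean compound-channel reporter intensity. Cysteines quantified in only one replicate were not included.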

Sequences of proteins named here, by UniProt entry; tags and fusion partners are left off. A change or cut given only in a name is not applied to a line headed by its entry.
UniProt O95347, whole entry, looked up: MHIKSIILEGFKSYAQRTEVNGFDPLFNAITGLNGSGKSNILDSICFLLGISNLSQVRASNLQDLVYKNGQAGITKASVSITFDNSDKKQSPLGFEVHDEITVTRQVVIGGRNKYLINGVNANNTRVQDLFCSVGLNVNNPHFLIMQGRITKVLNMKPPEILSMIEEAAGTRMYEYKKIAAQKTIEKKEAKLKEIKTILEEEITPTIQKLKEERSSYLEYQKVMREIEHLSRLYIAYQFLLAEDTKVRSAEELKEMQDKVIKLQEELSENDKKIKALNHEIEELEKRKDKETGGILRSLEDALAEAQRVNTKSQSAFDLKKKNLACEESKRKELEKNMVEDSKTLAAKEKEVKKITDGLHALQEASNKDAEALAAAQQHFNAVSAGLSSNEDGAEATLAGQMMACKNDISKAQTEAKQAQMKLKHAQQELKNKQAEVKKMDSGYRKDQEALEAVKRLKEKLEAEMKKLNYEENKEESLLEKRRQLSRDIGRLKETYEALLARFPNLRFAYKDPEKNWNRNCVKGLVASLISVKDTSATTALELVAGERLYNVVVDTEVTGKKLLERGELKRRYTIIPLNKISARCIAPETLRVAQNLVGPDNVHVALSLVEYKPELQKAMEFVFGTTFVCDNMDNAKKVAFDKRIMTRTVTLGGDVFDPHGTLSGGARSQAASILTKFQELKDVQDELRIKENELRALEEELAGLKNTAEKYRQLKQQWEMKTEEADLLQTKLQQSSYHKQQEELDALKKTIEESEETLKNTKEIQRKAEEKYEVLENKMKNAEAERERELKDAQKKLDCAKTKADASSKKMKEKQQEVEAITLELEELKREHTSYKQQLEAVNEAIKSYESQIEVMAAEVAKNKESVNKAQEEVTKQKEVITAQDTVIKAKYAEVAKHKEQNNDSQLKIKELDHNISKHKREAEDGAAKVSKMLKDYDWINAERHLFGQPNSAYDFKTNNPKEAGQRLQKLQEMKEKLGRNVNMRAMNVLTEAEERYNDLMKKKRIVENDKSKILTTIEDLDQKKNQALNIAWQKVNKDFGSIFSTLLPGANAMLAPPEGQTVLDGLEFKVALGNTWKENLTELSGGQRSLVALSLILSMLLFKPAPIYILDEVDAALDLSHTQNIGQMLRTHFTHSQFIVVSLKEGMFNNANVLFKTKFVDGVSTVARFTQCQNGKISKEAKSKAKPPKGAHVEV
UniProt O95757: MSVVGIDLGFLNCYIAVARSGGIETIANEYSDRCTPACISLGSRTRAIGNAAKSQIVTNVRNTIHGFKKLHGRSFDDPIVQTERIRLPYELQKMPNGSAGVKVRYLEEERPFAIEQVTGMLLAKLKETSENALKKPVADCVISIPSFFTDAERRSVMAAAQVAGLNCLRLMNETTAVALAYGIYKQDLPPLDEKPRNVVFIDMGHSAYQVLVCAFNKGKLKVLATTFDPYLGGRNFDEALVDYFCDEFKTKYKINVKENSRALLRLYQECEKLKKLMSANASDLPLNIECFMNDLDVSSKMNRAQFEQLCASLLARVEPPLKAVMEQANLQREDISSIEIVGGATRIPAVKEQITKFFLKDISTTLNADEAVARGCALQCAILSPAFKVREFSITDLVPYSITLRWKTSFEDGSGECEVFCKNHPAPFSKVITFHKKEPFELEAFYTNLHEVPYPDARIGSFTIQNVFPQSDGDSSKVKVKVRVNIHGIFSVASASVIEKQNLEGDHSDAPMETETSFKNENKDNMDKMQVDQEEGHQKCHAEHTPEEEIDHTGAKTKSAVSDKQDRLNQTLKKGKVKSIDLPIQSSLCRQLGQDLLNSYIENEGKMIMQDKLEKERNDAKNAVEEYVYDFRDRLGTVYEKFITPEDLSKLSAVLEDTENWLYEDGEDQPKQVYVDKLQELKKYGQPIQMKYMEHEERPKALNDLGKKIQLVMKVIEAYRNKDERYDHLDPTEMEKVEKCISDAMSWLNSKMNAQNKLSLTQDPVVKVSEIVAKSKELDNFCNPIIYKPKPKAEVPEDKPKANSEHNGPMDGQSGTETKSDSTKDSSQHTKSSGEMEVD
UniProt O94906: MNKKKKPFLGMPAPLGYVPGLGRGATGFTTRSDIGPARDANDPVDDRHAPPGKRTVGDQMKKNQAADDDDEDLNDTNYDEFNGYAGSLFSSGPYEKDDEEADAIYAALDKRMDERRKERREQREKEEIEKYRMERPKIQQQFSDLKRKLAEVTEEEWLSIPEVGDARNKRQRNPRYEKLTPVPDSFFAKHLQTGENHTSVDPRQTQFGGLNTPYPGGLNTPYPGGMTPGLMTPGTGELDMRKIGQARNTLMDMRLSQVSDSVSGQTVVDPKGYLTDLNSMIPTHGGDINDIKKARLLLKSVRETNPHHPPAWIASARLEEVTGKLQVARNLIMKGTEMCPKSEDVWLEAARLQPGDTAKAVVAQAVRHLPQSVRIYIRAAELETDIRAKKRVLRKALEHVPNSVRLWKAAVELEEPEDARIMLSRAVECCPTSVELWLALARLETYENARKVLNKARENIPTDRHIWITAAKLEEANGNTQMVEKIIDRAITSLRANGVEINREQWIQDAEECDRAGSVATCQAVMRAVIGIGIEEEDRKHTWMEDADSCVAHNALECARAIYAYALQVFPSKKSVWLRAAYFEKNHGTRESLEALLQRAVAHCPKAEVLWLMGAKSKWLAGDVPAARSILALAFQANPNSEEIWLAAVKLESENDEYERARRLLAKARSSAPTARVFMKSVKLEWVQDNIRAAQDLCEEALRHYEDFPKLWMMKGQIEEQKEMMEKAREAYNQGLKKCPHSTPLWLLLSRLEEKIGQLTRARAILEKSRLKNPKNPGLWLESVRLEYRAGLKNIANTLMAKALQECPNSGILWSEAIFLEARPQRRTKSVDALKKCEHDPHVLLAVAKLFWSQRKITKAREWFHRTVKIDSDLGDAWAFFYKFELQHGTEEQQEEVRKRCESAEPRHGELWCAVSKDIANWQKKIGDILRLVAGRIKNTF
UniProt O95239: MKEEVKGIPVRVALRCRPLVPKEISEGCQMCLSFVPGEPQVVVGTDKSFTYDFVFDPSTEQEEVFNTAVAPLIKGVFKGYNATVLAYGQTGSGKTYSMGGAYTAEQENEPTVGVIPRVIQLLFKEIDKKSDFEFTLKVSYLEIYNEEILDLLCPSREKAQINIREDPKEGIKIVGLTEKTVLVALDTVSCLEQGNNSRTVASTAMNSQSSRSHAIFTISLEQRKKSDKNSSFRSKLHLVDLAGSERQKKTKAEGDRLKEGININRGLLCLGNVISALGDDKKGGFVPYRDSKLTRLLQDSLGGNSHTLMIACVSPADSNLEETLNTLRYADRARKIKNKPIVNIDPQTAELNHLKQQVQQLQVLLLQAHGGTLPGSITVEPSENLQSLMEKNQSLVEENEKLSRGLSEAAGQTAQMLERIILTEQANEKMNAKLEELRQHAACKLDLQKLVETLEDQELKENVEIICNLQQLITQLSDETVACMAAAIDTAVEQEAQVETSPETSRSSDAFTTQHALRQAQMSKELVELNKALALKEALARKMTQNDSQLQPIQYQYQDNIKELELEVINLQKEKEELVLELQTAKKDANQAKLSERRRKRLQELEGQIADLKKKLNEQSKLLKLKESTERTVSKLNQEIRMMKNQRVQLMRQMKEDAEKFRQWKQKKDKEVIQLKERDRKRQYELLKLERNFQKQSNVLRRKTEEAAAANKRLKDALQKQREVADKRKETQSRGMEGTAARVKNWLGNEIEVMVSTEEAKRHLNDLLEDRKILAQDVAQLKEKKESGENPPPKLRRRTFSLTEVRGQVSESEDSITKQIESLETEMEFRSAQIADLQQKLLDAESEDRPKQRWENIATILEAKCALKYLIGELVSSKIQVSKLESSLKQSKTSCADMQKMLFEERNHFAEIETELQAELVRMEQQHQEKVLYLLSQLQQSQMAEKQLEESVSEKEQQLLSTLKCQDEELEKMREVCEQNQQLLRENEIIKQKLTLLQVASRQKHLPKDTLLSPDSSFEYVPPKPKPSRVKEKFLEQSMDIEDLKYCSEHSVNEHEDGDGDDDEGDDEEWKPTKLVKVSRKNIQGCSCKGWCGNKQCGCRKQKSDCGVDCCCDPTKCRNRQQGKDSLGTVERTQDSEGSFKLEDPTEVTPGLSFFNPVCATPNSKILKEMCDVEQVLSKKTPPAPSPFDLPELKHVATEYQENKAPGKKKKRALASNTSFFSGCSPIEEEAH
UniProt P07737, whole entry, looked up: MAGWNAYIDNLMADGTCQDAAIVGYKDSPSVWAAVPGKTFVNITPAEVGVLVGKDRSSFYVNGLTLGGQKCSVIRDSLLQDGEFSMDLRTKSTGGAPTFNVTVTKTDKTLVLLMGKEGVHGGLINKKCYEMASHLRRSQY
UniProt P07099: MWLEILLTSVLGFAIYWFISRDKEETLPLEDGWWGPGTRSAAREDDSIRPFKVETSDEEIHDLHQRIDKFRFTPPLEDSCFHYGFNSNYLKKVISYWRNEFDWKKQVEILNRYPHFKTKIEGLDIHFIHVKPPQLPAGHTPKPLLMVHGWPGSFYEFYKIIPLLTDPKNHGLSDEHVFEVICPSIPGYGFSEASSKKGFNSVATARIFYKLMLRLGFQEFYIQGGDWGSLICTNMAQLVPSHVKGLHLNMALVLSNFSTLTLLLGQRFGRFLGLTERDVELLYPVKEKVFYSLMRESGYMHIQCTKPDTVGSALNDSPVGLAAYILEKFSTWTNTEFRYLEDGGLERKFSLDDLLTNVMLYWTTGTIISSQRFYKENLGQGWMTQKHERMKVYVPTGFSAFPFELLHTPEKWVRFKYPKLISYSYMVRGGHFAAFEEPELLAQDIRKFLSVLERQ
UniProt O96006: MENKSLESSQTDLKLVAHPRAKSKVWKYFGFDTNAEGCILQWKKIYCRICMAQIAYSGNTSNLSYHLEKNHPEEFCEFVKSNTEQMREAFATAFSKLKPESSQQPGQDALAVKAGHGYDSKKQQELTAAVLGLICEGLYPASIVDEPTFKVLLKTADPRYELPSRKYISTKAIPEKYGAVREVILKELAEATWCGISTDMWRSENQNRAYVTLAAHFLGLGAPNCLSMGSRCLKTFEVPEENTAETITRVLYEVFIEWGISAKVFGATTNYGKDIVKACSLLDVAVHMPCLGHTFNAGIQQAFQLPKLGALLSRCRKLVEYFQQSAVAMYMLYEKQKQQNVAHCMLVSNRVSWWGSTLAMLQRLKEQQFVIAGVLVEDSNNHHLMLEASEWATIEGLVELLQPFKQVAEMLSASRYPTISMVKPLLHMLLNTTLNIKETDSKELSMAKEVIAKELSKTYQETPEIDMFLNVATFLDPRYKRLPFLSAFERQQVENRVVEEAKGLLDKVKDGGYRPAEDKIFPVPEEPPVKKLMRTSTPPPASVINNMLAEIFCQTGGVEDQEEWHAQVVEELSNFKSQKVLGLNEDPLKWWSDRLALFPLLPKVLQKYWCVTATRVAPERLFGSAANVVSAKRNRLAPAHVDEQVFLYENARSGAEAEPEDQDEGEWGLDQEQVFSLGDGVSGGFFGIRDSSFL
UniProt O95685: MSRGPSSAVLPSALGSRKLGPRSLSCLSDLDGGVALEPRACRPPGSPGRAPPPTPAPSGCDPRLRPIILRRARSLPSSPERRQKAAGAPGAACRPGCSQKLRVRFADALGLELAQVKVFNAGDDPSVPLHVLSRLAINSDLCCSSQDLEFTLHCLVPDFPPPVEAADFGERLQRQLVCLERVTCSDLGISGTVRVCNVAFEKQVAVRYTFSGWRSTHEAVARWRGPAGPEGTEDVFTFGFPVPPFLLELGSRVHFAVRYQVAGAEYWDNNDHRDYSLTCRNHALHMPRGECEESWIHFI
UniProt O94925: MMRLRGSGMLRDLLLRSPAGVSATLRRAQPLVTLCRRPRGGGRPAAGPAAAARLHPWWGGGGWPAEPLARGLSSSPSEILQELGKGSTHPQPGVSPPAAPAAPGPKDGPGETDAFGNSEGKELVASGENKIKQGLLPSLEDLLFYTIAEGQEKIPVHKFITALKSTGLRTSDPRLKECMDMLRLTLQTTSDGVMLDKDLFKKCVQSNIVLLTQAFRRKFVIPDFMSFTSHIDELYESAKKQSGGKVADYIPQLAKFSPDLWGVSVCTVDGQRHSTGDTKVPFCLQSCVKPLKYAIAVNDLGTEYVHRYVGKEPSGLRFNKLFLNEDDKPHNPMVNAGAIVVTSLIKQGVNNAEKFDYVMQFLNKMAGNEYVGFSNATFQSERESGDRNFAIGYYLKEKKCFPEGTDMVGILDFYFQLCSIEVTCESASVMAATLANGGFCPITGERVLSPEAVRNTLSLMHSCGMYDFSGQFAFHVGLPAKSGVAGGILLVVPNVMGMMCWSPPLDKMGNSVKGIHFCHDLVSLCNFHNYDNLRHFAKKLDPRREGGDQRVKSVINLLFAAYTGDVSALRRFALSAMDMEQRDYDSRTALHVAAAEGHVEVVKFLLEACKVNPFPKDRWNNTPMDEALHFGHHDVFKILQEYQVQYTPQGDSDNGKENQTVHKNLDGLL

Row | Target | log2 ratio of iodoacetamide-alkyne labeling
1 | EPRS C623 (UniProt P07814) | inactive: -0.0298
2 | SMC2 C132 (UniProt O95347) | inactive: 0.137
3 | PCNT C974 (UniProt O95613) | inactive: -0.0788
4 | HSPA4L C589 (UniProt O95757) | inactive: 0.0295
5 | RPLP0 C226 (UniProt P05388) | inactive: 0.239
6 | TP53 C182 (UniProt P04637) | inactive: 0.152
7 | UniProt O95478_C154 | inactive: 0.296
8 | SMC2 C1174 (UniProt O95347) | inactive: 0.555
9 | RTN3 C34 (UniProt O95197) | active: 1.43
10 | PRPF6 C807 (UniProt O94906) | inactive: 0.188
11 | SMC2 C326 (UniProt O95347) | inactive: 0.547
12 | ALDOA C202 (UniProt P04075) | inactive: -0.0261
13 | SBF1 C553 (UniProt O95248) | inactive: 0.997
14 | SASH1 C799 (UniProt O94885) | inactive: 0.202
15 | SLC25A5 C129 (UniProt P05141) | inactive: 0.212
16 | KIF4A C1224 (UniProt O95239) | inactive: 0.387
17 | UniProt P07437_C211 | inactive: 0.276
18 | PFN1 C71 (UniProt P07737) | inactive: -0.0177
19 | HPRT1 C106 (UniProt P00492) | inactive: 0.279

Row | Target | log2 ratio of iodoacetamide-alkyne labeling
20 | IPO7 C90 (UniProt O95373) | inactive: 0.213
21 | TK1 C230 (UniProt P04183) | inactive: 0.335
22 | UBE4B C1129 (UniProt O95155) | inactive: -0.00716
23 | EPHX1 C80 (UniProt P07099) | inactive: 0.109
24 | HEXIM1 C122 (UniProt O94992) | inactive: -0.0215
25 | EPRS C1148 (UniProt P07814) | inactive: 0.157
26 | PAPSS2 C155 (UniProt O95340) | inactive: -0.0435
27 | UniProt P00491_C31 | inactive: 0.101
28 | ZBED1 C76 (UniProt O96006) | inactive: 0.438
29 | PPP1R3D C291 (UniProt O95685) | inactive: 0.488
30 | TP53 C277 (UniProt P04637) | inactive: 0.269
31 | UniProt O94927_C262 | inactive: 0.162
32 | SNAPIN C66 (UniProt O95295) | inactive: 0.113
33 | GPI C404 (UniProt P06744) | inactive: 0.296
34 | GPX1 C115 (UniProt P07203) | inactive: 0.246
35 | GLS C518 (UniProt O94925) | inactive: 0.321
36 | HSPA4L C290 (UniProt O95757) | inactive: -0.0192
37 | MBD4 C268 (UniProt O95243) | active: 1.12

Single entries from the results shown:
In log2 ratio of iodoacetamide-alkyne labeling, UniProt P00491_C31 shows inactive: 0.101
In log2 ratio of iodoacetamide-alkyne labeling, HSPA4L C290 (UniProt O95757) shows inactive: -0.0192
